Tested on: bronchoconstriction induced by histamine
Test: Histamine-induced bronchoconstriction in conscious guinea-pigs, whole body plethysmography (sGaw)
Assay type: in vivo, guinea-pig

## COc1ccc(CC(C)NCC(O)c2ccc(O)c(NC=O)c2)cc1 (stereo not shown) [Formoterol, formoterol]
FIG. 4A, formoterol 0.3 μg/ml, 90 minutes before histamine
  Post-treatment (% sGaw): −70.0 % sGaw
FIG. 4A, formoterol 1 μg/ml, 90 minutes before histamine
  Post-treatment (% sGaw): −75.1 % sGaw
FIG. 4A, formoterol 3 μg/ml, 90 minutes before histamine
  Post-treatment (% sGaw): −29.2 % sGaw
FIG. 4B, formoterol 1 μg/ml
  Post-treatment (% sGaw): −75.1 % sGaw
